Test results: patent US4368192 (dated 1983)

Test: general procedure: solution-phase peptide synthesis; DCCD/HOBT; DCCD/HOSU
Conditions: barium salt

For “B--Arg(B2)--Asp(OtBu)--Tyr(SO2 Ba1/2)-Thr(tBu)--Gly--Trp--Leu--Asp(OtBu)--Phe--NH2”, the step yield (coupling step) was 96%.
“B--Tyr(SO3 Ba1/2)--Thr(tBu)--Gly--Trp--Leu-Asp(OtBu)--Phe--NH2” showed a step yield (coupling step) of 70%.
With “H--Arg--Asp(OtBu)--Tyr(SO3 H)-Thr(tBu)--Gly--Trp--Leu--Asp(OtBu)--Phe--NH2” the step yield (late stage modification step) was 83% of theoretical.
In the case of “H-Tyr(SO3 Ba1/2)-Thr(tBu)--Gly--Trp--Leu--Asp(OtBu)-Phe-NH2”, the step yield (late stage modification step) is reported as 96% of theoretical.
